Measurements: publication PMC10482907
These are yes or no findings as the source states them, for the method shown. In cells and extracts the contact can be indirect. Some binding calls cover weakened binding; strength is not graded here. For part of these data: Tags and fused reporters may be left off the sequences shown.

By UniProt entry, the sequences of proteins in these tests, tags left out.
UniProt Q6P5F9: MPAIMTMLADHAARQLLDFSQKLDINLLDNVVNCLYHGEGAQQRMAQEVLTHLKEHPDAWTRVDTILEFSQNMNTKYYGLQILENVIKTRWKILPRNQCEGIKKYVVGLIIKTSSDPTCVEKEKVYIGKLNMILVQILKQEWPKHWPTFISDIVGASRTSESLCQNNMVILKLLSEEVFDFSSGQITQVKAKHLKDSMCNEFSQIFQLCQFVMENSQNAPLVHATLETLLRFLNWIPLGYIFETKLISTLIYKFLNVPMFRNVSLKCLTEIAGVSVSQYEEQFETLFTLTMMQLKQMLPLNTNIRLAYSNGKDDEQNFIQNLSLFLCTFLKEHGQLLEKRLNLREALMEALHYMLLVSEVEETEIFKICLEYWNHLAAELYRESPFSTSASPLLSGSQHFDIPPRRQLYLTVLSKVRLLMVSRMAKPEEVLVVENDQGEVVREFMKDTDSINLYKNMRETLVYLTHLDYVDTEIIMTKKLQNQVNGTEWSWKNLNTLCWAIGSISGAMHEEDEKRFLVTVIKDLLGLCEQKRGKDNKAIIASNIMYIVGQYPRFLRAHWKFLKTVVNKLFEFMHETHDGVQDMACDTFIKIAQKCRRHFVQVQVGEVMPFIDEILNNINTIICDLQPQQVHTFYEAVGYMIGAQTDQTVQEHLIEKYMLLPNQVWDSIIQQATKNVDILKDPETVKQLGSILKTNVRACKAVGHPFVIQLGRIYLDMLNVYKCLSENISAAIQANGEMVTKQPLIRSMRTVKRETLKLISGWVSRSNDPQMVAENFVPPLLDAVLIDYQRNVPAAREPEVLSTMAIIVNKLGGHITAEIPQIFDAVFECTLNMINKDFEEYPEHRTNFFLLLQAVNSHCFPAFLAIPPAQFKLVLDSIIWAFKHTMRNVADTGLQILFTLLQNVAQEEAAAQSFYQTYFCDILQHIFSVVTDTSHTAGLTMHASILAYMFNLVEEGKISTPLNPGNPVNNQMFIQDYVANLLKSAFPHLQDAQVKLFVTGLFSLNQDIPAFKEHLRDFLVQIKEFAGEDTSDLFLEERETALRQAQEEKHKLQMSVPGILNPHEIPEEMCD
UniProt O14980: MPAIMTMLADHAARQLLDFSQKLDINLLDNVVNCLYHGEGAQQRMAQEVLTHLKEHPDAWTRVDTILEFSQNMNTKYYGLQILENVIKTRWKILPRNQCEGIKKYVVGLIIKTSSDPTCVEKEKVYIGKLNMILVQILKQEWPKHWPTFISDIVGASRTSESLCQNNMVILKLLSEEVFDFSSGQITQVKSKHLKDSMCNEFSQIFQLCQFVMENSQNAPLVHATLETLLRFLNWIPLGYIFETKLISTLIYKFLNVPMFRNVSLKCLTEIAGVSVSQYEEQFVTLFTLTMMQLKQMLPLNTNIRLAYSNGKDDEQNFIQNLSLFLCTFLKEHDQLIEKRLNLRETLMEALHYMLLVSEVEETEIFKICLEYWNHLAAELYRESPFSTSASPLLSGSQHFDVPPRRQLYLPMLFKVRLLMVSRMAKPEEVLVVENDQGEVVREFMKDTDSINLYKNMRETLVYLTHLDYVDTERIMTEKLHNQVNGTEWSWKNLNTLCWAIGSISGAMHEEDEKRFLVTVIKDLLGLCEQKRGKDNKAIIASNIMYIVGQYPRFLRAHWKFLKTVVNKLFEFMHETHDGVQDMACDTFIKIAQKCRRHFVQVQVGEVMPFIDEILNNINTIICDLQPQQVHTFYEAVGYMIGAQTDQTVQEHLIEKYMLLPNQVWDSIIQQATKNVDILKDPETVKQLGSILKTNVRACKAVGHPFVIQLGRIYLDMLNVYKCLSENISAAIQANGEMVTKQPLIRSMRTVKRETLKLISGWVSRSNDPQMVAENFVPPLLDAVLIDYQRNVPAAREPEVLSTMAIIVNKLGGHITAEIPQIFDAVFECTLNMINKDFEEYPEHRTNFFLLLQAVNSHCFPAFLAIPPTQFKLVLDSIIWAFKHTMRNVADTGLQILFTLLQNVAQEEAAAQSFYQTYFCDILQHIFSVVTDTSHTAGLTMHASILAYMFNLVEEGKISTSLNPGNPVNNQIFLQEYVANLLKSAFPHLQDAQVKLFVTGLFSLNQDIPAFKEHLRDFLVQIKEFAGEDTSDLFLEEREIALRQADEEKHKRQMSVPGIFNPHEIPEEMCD

B1: peroxisome proliferator-activated receptor α (protein, UniProt P23204 1-468)
chain: MVDTESPICPLSPLEADDLESPLSEEFLQEMGNIQEISQSIGEESSGSFGFADYQYLGSCPGSEGSVITDTLSPASSPSSVSCPVIPASTDESPGSALNIECRICGDKASGYHYGVHACEGCKGFFRRTIRLKLVYDKCDRSCKIQKKNRNKCQYCRFHKCLSVGMSHNAIRFGRMPRSEKAKLKAEILTCEHDLKDSETADLKSLGKRIHEAYLKNFNMNKVKARVILAGKTSNNPPFVIHDMETLCMAEKTLVAKMVANGVEDKEAEVRFFHCCQCMSVETVTELTEFAKAIPGFANLDLNDQVTLLKYGVYEAIFTMLSSLMNKDGMLIAYGNGFITREFLKNLRKPFCDIMEPKFDFAMKFNALELDDSDISLFVAAIICCGDRPGLLNIGYIEKLQEGIVHVLKLHLQSNHPDDTFLFPKLLQKMVDLRQLVTEHAQLVQVIKKTESDAALHPLLQEIYRDMY
B2: HA-GFP-PPARα (protein, UniProt Q07869 1-468)
chain: MVDTESPLCPLSPLEAGDLESPLSEEFLQEMGNIQEISQSIGEDSSGSFGFTEYQYLGSCPGSDGSVITDTLSPASSPSSVTYPVVPGSVDESPSGALNIECRICGDKASGYHYGVHACEGCKGFFRRTIRLKLVYDKCDRSCKIQKKNRNKCQYCRFHKCLSVGMSHNAIRFGRMPRSEKAKLKAEILTCEHDIEDSETADLKSLAKRIYEAYLKNFNMNKVKARVILSGKASNNPPFVIHDMETLCMAEKTLVAKLVANGIQNKEAEVRIFHCCQCTSVETVTELTEFAKAIPGFANLDLNDQVTLLKYGVYEAIFAMLSSVMNKDGMLVAYGNGFITREFLKSLRKPFCDIMEPKFDFAMKFNALELDDSDISLFVAAIICCGDRPGLLNVGHIEKMQEGIVHVLRLHLQSNHPDDIFLFPKLLQKMADLRQLVTEHAQLVQIIKKTESDAALHPLLQEIYRDMY

Legend:
[1] = target: export receptor CRM1 (mouse (endogenous in AML12)) (UniProt Q6P5F9); assay: proximity ligation; Duolink PLA on endogenous proteins in AML12 cells treated with 100 μM HDCA or DMSO for 24 h
[2] = target: export receptor CRM1 (mouse (endogenous in AML12)) (UniProt Q6P5F9); assay: co-IP; endogenous proteins of AML12 cells; CRM1 antibody on magnetic beads, protein extracts at 4 °C overnight, Western blot; cells with or without 100 μM HDCA
GFP-CRM1 = GFP-CRM1 (UniProt O14980); assay: co-IP; Flag-GFP-RAN (wild type or G5A/P49A/V51A), HA-GFP-PPARα and GFP-CRM1 overexpressed in HEK293T cells; antibody (Flag, HA) on magnetic beads, protein extracts at 4 °C overnight, Western blot; with or without 100 μM HDCA; which antibody precipitated which pair is not told

| Binder | binding [1] | binding [2] | binding (GFP-CRM1) |
| --- | --- | --- | --- |
| B1 | binds | binds |  |
| B2 |  |  | binds |
